The values that follow come from publication PMC7819943, “Rice protein-binding microarrays: a tool to detect cis-acting elements near promoter regions in rice”.

This is one part of the list.

This test addresses T1, OsSMF1 (Oryza sativa, UniProt Q6ZLB0 1-436).
T1 sequence: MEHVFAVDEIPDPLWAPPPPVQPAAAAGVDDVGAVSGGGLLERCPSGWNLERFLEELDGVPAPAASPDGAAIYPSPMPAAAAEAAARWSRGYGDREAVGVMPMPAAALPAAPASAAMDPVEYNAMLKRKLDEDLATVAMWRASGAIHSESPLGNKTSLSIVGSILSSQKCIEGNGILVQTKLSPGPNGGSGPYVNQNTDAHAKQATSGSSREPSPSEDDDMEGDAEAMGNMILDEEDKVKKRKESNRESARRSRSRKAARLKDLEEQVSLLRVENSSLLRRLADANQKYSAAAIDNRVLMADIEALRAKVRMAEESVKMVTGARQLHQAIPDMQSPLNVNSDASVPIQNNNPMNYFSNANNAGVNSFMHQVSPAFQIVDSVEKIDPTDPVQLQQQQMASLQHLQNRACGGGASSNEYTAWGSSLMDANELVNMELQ
Nature of the test: protein-binding microarray (RPBM); PBS, 2% BSA, 51.3 ng/ul salmon testes DNA, 50 uM zinc acetate, 200 nM TF, 25 C, 1 h; high values mean tight binding. The conditions noted are these: protein: recombinant; tags: N-terminal polyhistidine and DsRed monomer fusion (pET32a); chain copies: 2; label: CyDye5-dUTP incorporated in the synthesized complementary strand; 3' TTTTT single-stranded linker to array surface; dsDNA, one strand shown. In short, it runs like this:
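The binding signal is fluorescence intensity per feature, in arbitrary units, read on an Axon 4000B scanner. Polyhistidine- and DsRed-tagged transcription factors (N-terminal fusions) from E. coli BL21-CodonPlus were purified on Ni–NTA and applied at 200 nM for 1 h at 25 °C to a double-stranded, BSA-blocked custom Agilent array in buffer with 50 µM zinc acetate.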
“ATCCCTCCCTCACGCAAGAAGCATCCCGATGACACACACGCGGAGTCACCTAGTGCAG”: the binding signal is 3700 ± 557 fluorescence intensity (a.u.). The figure for “AAAGCTGCAAATCTCCAAATTTCCAGCGACACACGCACGTCGGAGTCACCTAGTGCAG” is 3400 fluorescence intensity (a.u.); for “GACAATTGCACAATACATACTGTATATAGCAAGCTTCGGTCGGAGTCACCTAGTGCAG” it is 3180 fluorescence intensity (a.u.). Take “ATTACGGTATAACTTACATAAAACTTGTATTCAACTGCGCCGGAGTCACCTAGTGCAG”: the binding signal is 15700 fluorescence intensity (a.u.).

On to “GCCCAGAACACCTGCCACCCTTTCGGGATGACGTAGCCGCCGGAGTCACCTAGTGCAG”, for which the binding signal was 11000 fluorescence intensity (a.u.). For the sequence “TGCCATGACCTAACCCATCTATTTTCACTTCACTTTTCCTCGGAGTCACCTAGTGCAG”, the binding signal is 4830 fluorescence intensity (a.u.). Regarding “GGCGATAGGCGGTGGAGGGCGGCGTGGCTGCACGTATTTTCGGAGTCACCTAGTGCAG”, the binding signal was 3900 fluorescence intensity (a.u.). The figure for “CATGGACTCGGCTCACAGATTCCGTCACACTTACATGTGGCGGAGTCACCTAGTGCAG” is 3560 fluorescence intensity (a.u.); for “CGAGAGATCGATATCGATCGATCCCACATCATTTGGCCACCGGAGTCACCTAGTGCAG” it is 3340 fluorescence intensity (a.u.); for “ATGACTTAGTGACGATATGATCGGTCGATCTGGTGTTATGCGGAGTCACCTAGTGCAG” it is 4040 fluorescence intensity (a.u.). In the case of “TCCAATCCTGCGTGGAGTAATTTATTTCAAGCGCAACAGGCGGAGTCACCTAGTGCAG”, the binding signal is 3630 fluorescence intensity (a.u.). In the case of “CAGGTGAACCCTCTAAGGCCATATTAGTTTTATATGCTGACGGAGTCACCTAGTGCAG” it was 3220 fluorescence intensity (a.u.); in that of “TGCTATCTACGTGGACTTAGTGTCGCCTGACTAATGTACCCGGAGTCACCTAGTGCAG”, 7800 fluorescence intensity (a.u.). “AACATCCACTACCGCTAGCCGCTCGTTCTCCCTCTCCCGCCGGAGTCACCTAGTGCAG”: the binding signal was 4000 fluorescence intensity (a.u.).

Regarding “ACTTGTATAATAAAATTATAATGTAACGTGTACGTAACTTCGGAGTCACCTAGTGCAG”, the binding signal is 3860 fluorescence intensity (a.u.). In the case of “AGCCGAAGCCCTCCCTCGTGTCCGACGACGACGCAGGGCACGGAGTCACCTAGTGCAG”, the binding signal is 3370 fluorescence intensity (a.u.). In the case of “TTATAATACTGTATTCTTTCACACATCACCTTTTATCTCACGGAGTCACCTAGTGCAG”, the binding signal is 4470 fluorescence intensity (a.u.). As for “CTTTCCCCGCGCCATCGATCCACGCCATTATATAGCTGTCCGGAGTCACCTAGTGCAG”, the binding signal was 3390 fluorescence intensity (a.u.). As for “TGGAGCTAGTCAAGTAGACAGATCATACTATTCCCCAATTCGGAGTCACCTAGTGCAG”, the binding signal is 4150 fluorescence intensity (a.u.). In the case of “ATATAAGGTCGCCGCGGCGTCACCAACTTCCCACACACATCGGAGTCACCTAGTGCAG” it was 4580 fluorescence intensity (a.u.). As to “TGTTCTTCCAAATCTGTCATGTGCAAGTATTACATAAACACGGAGTCACCTAGTGCAG”, the binding signal was 3510 fluorescence intensity (a.u.). Take “CGCCTCCAATTCTTCGCTACCGCCATGTCATGCTTCCCATCGGAGTCACCTAGTGCAG”: the binding signal was 6790 fluorescence intensity (a.u.). On to “AATTAAAACCGTGCCATTACCGTCACGTTTTCTATCAACTCGGAGTCACCTAGTGCAG”, for which the binding signal was 3270 fluorescence intensity (a.u.). Consider “GACTGGGAGGATGAGGGGTGGGTGGGTGTGGCTGCTTCTGCGGAGTCACCTAGTGCAG”, for which the binding signal is 6000 fluorescence intensity (a.u.). Regarding “AAATGCATATAGAAAACTGACGTCAATGAATGATAATGATCGGAGTCACCTAGTGCAG”, the binding signal was 4630 fluorescence intensity (a.u.). Consider “GGAACGCCATCGCCAGCCGCATCCGCCGCGCCGACGCCACCGGAGTCACCTAGTGCAG”, for which the binding signal is 24700 fluorescence intensity (a.u.).

For the sequence “GCCGACCGCCGGTGCGCACCTTCGCCGAGGGAGGAGGAGTCGGAGTCACCTAGTGCAG”, the binding signal is 26000 fluorescence intensity (a.u.). “TCCATTAGTGCAGTAGTAGTACTGAACTCTCTGTGGGTTGCGGAGTCACCTAGTGCAG”: the binding signal was 3700 fluorescence intensity (a.u.). The figure for “CTCCCTAGTCCACAAAACCTAGTGACGCGGCGAAACCCAACGGAGTCACCTAGTGCAG” is 5660 fluorescence intensity (a.u.); for “CGCCATGGGAGCACTCCCCATCTTGTCCTCTACCGCCGCGCGGAGTCACCTAGTGCAG” it is 3250 fluorescence intensity (a.u.). In the case of “ACAGGGCTCCACGGGCACCCGCGGATGACATCGGTGACCACGGAGTCACCTAGTGCAG” it was 3210 fluorescence intensity (a.u.); in that of “ATGCAACTTGTAGTGTAGGCTCAGAGCAGGCAAATAATTTCGGAGTCACCTAGTGCAG”, 3750 fluorescence intensity (a.u.). In the case of “AAATTCACAAATACCATACTGTAACATGTCACAGAGGTTGCGGAGTCACCTAGTGCAG” it was 3210 fluorescence intensity (a.u.); in that of “AACATAACCTATGCATGACTCATGCATCTGTGCTCCCCTACGGAGTCACCTAGTGCAG”, 15200 fluorescence intensity (a.u.). As for “ACTCGAAAGTGTGCCTCTTTATCCACCCGTTGCAGCGTTGCGGAGTCACCTAGTGCAG”, the binding signal was 3330 fluorescence intensity (a.u.). Consider “ATTACGCAGTGAGCCCACATCCAAAGCCCACGACGAACAACGGAGTCACCTAGTGCAG”, for which the binding signal is 4010 fluorescence intensity (a.u.).

“ACTTCCCCTTTCTTTTGTGACGTGCTATTCAGTTCTCTTTCGGAGTCACCTAGTGCAG”: the binding signal was 4390 fluorescence intensity (a.u.). In the case of “CAACAGACATCTTCCTGGAGGTGATGTCACAATATCCTTTCGGAGTCACCTAGTGCAG”, the binding signal was 7250 fluorescence intensity (a.u.). Regarding “AAAAGATTCGTCTCGCAATTTACACGTAACCTGTGTAATTCGGAGTCACCTAGTGCAG”, the binding signal was 7350 fluorescence intensity (a.u.). For “CGTCCCTCACCACATTCGCTGTCGCCGTCCTCCGCACCCTCGGAGTCACCTAGTGCAG”, the binding signal was 3580 fluorescence intensity (a.u.).

As to “CCCAAATATGATAGTACTCCAAGTTCGGCCTTTCGGCCCACGGAGTCACCTAGTGCAG”, the binding signal was 14800 fluorescence intensity (a.u.). Turning to “GATGCCGAAGAACCCGAGCCCGAGTCAGCGCCACTATCCTCGGAGTCACCTAGTGCAG”, the binding signal is 3230 fluorescence intensity (a.u.). In the case of “CCTGAGGAGGGAAGGGTCGATGTGGAGGAGCGGCGGCGACCGGAGTCACCTAGTGCAG” it was 3500 fluorescence intensity (a.u.); in that of “AGGTCGGGCCGGGGAAATATTCCACGTGGATCGGGCCCGGCGGAGTCACCTAGTGCAG”, 13800 fluorescence intensity (a.u.); in that of “GCTCCCCGATGATCGCGTCGTCATCCGCTGCAACGACGCCCGGAGTCACCTAGTGCAG”, 5320 fluorescence intensity (a.u.).

For the sequence “AGATTCGTTTTCTGCGTTGTGATTTAGCCCATAAAGACCACGGAGTCACCTAGTGCAG”, the binding signal was 3940 fluorescence intensity (a.u.). As for “GCGTCATTCCGTTGGGCCCACCTGTCAGCAACGTAATTAGCGGAGTCACCTAGTGCAG”, the binding signal is 3590 fluorescence intensity (a.u.).

On to “CACTACTGCAACATTATTTTGTCATATGTGGCAAGCTAAGCGGAGTCACCTAGTGCAG”, for which the binding signal was 4400 fluorescence intensity (a.u.). In the case of “GCTGTGGCTGCGCCTTGTGAACAATACTTGAGCAATAAAGCGGAGTCACCTAGTGCAG”, the binding signal was 10100 fluorescence intensity (a.u.). In the case of “GCTAACCTCGGTATACCGGTATTGCACTCCTACCCCGCGACGGAGTCACCTAGTGCAG” it was 17100 fluorescence intensity (a.u.); in that of “CCCAAAGACCCACGCACGATTCGCCACGTCGACGGTGACCCGGAGTCACCTAGTGCAG”, 13600 fluorescence intensity (a.u.); in that of “TCTTTGTCTCATTATCTGCAACGTGCCCACCCACCAGTCCCGGAGTCACCTAGTGCAG”, 3250 fluorescence intensity (a.u.). Consider “CACCACTAATCCATTCCAAATTTCCAATACAATGAACACTCGGAGTCACCTAGTGCAG”, for which the binding signal is 8160 fluorescence intensity (a.u.). On to “ACCGCAAAGTTGACAGCAACGCACATGCGCCCGCGCCATACGGAGTCACCTAGTGCAG”, for which the binding signal was 3240 fluorescence intensity (a.u.).
